Reference: patent US20220332829A1
No constants are given. Whether binding was seen depends on the method and setting. Some binding calls cover weakened binding; strength is not graded here. Sequences can lack the tags named with a protein. Values belong to the binder of their own block, whether it stands above or below them.

Experiments:
[1] = target: T1, human 4Ig-B7-H3-His protein (human) (UniProt Q5ZPR3); experiment: Biacore X100 SPR
T1 sequence: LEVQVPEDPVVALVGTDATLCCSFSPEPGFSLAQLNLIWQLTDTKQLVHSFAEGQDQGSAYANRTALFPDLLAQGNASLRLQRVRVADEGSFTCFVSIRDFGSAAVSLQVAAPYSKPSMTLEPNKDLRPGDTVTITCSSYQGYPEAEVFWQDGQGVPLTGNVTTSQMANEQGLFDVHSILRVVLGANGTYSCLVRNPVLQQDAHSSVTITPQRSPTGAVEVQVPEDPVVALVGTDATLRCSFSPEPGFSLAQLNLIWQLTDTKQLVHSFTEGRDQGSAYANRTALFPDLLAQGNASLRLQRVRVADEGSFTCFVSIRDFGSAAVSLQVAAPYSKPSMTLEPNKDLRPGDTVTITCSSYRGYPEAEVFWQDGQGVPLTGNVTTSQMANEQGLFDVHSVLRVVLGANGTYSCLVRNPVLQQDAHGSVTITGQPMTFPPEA

[2] = target: T1, human 4Ig-B7-H3-His protein (human); experiment: ELISA, plate coated with human 4Ig-B7-H3-His, detection with anti-human IgG HRP, OD450
[3] = target: T1, human 4Ig-B7-H3-His protein (human); experiment: ELISA, plate coated with 4Ig-B7-H3-His
[4] = target: T1, human 4Ig-B7-H3-His protein (human); experiment: ELISA, plate coated with 4Ig-B7-H3-His; positive control

- binding [1]: binds
- binding [2]: binds
- binding [3]: binds
B1: hu51-G34K-12 (antibody, human IgG1, V domains shown)
VH: EVQLVESGGGLVKPGGSLRLSCAASGFTFSSFGMSWVRQAPGKGLEWVATINSGDNYSYSPDSVKGRFTISRDNAKNSLYLQMNSLRAEDTAVYYCARPHIFYYGSPAWFAYWGQGTLVTVSS
VL: DVVMTQSPLSLPVTLGQPASISCRSRQSLVHSNKNTYLHWFQQRPGQSPRLLIYKVSNRFSGVPDRFSGSGSGTDFTLKISRVEAEDVGVYYCSQSTHVPLTFGGGTKVEIK

- binding [2]: binds
- binding [4]: binds
B2: hBRCA84D (antibody, human IgG1, kappa, V domains shown)
VH: EVQLVESGGGLVQPGGSLRLSCAASGFTFSSFGMHWVRQAPGKGLEWVAYISSDSSAIYYADTVKGRFTISRDNAKNSLYLQMNSLRDEDTAVYYCGRGRENIYYGSRLDYWGQGTTVTVSS
VL: DIQLTQSPSFLSASVGDRVTITCKASQNVDTNVAWYQQKPGKAPKALIYSASYRYSGVPSRFSGSGSGTDFTLTISSLQPEDFATYYCQQYNNYPFTFGQGTKLEIKR

- binding [1]: binds
- binding [3]: binds
B3: hu65-13 (antibody, human IgG1, V domains shown)
VH: EVQLVESGGGLVQPGGSLRLSCAASGFTFSDYGIHWVRQAPGKGLEWVSYISSGSNTIYYADTVKGRFTISRDNAKNSLYLQMNSLRAEDTAVYYCATMVTRWFYYAMDYWGQGTTVTVSS
VL: EIVLTQSPATLSLSPGERATLSCSASSSVSYMYWYQQKPGQAPRRLIYDTSKLASGVPARFSGSGSGTDYTLTISSLEPEDFAVYYCQQWSSNPPTFGQGTKLEIK
